In the supplement of paper PMC10849652:
This is one part of the list.

The chains behind the UniProt entries cited, without tags or fusion partners. Where a name states a change or a piece, a line headed by the entry shows the natural chain unless it says otherwise.
UniProt Q71RC2, whole entry, looked up: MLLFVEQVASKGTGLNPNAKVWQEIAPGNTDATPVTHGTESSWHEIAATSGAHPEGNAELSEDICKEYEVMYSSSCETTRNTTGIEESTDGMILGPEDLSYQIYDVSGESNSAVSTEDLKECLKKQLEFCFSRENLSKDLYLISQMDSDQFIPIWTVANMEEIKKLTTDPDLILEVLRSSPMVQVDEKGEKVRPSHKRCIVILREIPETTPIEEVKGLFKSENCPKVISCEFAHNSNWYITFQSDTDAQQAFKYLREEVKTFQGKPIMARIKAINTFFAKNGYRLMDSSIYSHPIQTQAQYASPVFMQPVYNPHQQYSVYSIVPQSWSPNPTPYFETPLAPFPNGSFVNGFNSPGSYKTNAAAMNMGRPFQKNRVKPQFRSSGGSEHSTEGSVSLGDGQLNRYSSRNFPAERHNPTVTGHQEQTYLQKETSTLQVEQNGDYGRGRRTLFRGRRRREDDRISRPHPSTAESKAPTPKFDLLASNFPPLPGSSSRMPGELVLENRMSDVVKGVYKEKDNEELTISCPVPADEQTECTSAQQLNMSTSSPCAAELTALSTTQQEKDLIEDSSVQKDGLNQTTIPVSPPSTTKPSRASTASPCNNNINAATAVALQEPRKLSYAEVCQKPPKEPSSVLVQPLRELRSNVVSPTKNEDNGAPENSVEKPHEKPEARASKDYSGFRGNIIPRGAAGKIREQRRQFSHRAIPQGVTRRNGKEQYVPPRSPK
UniProt Q8NF37: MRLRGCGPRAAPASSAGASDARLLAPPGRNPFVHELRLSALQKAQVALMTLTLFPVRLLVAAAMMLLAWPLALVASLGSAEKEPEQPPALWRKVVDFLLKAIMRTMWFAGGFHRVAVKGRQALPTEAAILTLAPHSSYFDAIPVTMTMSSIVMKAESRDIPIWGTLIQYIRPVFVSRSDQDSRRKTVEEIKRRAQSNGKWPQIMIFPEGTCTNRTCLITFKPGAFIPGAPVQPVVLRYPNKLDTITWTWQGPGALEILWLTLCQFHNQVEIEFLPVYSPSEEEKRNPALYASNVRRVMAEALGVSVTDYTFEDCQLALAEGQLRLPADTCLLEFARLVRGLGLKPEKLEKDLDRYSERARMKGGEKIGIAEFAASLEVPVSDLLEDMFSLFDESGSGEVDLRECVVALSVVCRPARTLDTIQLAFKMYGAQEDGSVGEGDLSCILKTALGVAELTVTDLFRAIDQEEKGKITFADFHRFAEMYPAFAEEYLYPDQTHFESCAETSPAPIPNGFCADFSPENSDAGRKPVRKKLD
UniProt Q9P2J5: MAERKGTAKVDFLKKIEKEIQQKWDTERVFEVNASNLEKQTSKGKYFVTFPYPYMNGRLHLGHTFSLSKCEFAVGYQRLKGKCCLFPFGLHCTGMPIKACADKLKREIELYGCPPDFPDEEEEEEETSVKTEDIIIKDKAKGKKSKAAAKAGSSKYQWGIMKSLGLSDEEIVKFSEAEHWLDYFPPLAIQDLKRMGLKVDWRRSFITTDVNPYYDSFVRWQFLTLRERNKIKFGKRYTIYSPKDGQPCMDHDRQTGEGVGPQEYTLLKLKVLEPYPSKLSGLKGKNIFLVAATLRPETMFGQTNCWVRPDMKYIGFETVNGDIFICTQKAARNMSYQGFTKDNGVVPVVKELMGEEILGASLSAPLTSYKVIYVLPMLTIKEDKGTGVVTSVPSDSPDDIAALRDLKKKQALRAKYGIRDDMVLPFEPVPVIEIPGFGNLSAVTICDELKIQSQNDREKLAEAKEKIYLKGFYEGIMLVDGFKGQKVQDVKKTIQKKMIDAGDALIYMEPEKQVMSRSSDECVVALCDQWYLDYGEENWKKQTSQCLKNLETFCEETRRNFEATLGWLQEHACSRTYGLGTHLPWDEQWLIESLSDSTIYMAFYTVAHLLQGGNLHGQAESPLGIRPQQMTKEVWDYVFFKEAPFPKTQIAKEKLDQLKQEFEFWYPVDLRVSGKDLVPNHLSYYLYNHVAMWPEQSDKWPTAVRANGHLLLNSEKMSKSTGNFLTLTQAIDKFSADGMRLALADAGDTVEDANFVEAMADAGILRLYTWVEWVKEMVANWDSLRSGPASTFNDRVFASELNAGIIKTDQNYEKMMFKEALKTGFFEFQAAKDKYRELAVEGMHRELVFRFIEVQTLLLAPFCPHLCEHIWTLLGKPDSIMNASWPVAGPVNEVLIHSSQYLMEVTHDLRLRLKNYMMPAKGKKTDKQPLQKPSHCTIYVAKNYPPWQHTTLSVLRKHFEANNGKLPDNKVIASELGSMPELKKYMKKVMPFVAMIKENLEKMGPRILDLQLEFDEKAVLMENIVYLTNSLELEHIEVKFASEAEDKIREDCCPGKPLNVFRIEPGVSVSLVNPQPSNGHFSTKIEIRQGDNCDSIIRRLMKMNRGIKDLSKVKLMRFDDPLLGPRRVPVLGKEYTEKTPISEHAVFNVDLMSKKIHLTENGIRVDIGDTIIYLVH
UniProt Q96AG4: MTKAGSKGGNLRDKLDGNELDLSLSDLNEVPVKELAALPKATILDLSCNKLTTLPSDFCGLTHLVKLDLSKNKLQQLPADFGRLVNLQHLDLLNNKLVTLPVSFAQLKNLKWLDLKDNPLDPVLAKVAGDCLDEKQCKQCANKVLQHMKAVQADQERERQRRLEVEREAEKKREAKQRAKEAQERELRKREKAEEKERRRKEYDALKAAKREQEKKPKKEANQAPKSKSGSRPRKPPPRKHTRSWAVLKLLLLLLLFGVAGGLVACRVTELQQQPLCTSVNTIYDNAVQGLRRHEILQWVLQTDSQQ
UniProt Q14657: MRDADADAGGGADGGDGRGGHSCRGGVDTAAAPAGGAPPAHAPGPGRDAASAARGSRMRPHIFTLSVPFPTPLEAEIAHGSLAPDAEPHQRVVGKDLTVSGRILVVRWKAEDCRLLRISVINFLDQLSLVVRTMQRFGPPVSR
UniProt Q92615, whole entry, looked up: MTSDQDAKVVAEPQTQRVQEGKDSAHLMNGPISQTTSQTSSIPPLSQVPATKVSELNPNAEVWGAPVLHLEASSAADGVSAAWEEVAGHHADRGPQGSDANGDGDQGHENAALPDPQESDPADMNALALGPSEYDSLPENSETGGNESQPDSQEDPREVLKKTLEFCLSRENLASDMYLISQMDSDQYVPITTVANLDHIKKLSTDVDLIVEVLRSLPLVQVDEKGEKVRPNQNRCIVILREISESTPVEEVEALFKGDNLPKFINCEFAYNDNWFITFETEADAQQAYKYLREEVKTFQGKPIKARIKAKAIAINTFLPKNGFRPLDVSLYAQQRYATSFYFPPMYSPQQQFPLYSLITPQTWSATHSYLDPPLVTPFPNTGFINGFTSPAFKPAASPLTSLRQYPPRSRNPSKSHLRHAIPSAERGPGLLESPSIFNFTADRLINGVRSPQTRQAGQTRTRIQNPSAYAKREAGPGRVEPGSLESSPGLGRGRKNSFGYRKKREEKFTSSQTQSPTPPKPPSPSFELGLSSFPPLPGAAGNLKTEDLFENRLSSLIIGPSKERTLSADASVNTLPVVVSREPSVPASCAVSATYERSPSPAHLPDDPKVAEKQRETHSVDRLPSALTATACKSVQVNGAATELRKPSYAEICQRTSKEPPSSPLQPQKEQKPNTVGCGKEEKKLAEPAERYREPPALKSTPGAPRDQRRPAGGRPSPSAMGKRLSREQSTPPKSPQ
UniProt Q96EM0: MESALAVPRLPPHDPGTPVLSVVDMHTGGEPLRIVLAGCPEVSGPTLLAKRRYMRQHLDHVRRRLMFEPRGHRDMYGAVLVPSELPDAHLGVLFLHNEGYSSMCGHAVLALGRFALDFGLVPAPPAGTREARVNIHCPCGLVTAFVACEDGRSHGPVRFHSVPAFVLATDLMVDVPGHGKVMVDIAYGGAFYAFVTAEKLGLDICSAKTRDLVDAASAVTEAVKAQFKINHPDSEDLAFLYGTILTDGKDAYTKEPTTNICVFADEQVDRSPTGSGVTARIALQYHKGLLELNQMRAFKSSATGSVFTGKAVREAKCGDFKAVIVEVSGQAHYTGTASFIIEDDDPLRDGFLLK
UniProt Q6YP21: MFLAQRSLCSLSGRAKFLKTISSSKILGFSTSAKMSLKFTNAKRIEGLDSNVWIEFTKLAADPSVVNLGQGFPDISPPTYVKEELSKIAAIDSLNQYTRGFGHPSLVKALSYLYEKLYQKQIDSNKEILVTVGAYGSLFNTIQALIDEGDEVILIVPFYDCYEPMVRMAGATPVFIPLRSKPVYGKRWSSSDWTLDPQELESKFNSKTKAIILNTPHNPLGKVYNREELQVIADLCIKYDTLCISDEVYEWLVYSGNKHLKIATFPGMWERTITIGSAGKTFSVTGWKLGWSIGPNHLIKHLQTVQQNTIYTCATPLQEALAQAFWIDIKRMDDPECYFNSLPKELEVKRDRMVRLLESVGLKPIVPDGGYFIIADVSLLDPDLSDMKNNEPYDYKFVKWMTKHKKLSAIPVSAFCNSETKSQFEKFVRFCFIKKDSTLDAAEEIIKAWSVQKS
UniProt Q6P1A2: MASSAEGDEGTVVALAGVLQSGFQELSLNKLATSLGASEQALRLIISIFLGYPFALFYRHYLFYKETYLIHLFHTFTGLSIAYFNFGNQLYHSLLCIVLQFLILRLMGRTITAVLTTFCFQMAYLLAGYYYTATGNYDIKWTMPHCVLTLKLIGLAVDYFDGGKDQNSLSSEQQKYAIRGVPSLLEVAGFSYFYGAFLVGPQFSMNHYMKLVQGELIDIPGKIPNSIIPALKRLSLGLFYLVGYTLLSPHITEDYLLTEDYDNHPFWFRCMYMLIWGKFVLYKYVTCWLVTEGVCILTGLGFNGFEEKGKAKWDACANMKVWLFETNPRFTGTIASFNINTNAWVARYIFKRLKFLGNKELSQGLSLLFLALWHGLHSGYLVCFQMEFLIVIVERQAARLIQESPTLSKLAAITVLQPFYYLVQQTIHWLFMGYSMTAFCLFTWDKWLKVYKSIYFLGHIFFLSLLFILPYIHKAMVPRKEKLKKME
UniProt P13796: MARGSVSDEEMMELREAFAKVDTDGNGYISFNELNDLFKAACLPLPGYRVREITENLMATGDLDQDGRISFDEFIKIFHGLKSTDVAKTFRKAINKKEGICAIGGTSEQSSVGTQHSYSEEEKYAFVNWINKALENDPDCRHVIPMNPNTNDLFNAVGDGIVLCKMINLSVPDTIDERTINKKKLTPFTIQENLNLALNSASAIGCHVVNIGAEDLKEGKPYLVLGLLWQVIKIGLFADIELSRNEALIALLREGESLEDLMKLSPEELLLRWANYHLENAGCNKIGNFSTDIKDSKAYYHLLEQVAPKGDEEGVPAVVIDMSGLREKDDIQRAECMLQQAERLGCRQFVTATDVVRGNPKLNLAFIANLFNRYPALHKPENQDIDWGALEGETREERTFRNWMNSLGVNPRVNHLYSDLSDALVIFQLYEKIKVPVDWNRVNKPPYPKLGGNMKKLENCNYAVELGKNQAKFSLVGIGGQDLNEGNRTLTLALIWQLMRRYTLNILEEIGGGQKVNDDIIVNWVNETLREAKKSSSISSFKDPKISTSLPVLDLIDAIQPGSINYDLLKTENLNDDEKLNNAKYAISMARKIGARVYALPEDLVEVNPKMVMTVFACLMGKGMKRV
UniProt P36776: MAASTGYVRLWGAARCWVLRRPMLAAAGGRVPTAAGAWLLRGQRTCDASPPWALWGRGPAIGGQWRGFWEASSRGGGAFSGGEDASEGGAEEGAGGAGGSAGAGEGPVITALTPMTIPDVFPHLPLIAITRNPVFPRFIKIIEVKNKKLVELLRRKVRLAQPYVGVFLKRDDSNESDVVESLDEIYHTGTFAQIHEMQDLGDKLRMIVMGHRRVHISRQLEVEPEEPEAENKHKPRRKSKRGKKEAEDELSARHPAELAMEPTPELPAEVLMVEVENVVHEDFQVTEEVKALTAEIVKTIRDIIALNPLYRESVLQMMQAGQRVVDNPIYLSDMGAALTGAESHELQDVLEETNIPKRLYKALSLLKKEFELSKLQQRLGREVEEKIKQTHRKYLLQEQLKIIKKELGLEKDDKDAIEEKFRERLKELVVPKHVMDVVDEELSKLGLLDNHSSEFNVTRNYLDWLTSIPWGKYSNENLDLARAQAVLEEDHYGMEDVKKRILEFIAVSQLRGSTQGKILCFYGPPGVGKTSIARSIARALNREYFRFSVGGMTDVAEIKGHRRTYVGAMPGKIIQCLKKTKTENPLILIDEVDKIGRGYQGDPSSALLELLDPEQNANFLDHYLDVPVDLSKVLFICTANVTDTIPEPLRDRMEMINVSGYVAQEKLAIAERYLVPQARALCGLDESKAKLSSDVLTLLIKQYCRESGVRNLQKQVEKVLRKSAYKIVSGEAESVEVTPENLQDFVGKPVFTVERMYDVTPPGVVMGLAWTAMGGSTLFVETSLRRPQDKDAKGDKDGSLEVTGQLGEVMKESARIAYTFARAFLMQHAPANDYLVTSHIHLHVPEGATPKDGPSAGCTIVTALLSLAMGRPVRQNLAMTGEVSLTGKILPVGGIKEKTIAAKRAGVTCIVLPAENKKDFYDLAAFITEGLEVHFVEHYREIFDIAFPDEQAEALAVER

How the values were obtained:
Assay in all cases: log2 fold change, soluble protein after heating vs DMSO (PISA); higher = thermal stabilisation; K562 cells, 10 uM, 30 min; active = over 0.2 and 3.5 SD of the protein, either way, in both replicates (recomputed)
[1] = compound: CC1=C(C=C(C=C1)NC(=O)C2=CC(=CC=C2)C(C)(C)C#N)NC3=CC4=C(C=C3)N=CN(C4=O)C
Summary of the method: (§1)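 Quantification of soluble protein used TMTpro 16plex LC-MS/MS, with channel sums equalised. Samples were the supernatant after 21,000xg for 90 min of pooled aliquots from K562 cells (2×10^6 cells/mL) treated with 10 μM compound for 30 min, heated for 3 min over 48°C-58°C, and extracted in PBS with 0.5% NP-40 at 4°C. Values, from duplicates, describe thermal stability against control samples on a log2 fold-change scale.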

[2] = compound: CC1=C(C=C(C=C1)NC(=O)C2=CC(=CC=C2)N(C)C)NC(=O)C3=CC=C(C=C3)O
Summary of the method: as §1

[3] = compound: CC1=CC=C(C=C1)SC2=C3C=C(SC3=CN=C2)C(=O)N
Summary of the method: as §1

[4] = compound: CC1=NC(=CC=C1)C2=C(N=C(N2)C(C)(C)C)C3=CC4=NC=CN=C4C=C3
Summary of the method: as §1

[5] = compound: CCCCN(Cc1ccc(C(=O)NO)cc1)C(=O)Nc1ccccc1 [Nexturastat A]
Summary of the method: as §1

[6] = compound: CCCS(=O)(=O)Nc1ccc(F)c(C(=O)c2c[nH]c3ncc(-c4ccc(Cl)cc4)cc23)c1F [vemurafenib]
Summary of the method: as §1

[7] = compound: CCCS(=O)(=O)Nc1ccc(F)c(C(=O)c2c[nH]c3ncc(Cl)cc23)c1F
Summary of the method: as §1

[8] = compound: CCCc1cc(C)[nH]c(=O)c1CNC(=O)c1cc(-c2ccnc(N3CCN(C)CC3)c2)cc2c1cnn2C(C)C
Summary of the method: as §1

[9] = compound: CCN(CC)Cc1ccc2cc(COC(=O)Nc3ccc(C(=O)NO)cc3)ccc2c1 [givinostat]
Summary of the method: as §1

[10] = compound: CCN(CCCOc1ccc2c(Nc3cc(CC(=O)Nc4cccc(F)c4)[nH]n3)ncnc2c1)CCOP(=O)(O)O [barasertib]
Summary of the method: as §1

| Target | log2 fold change [1] | log2 fold change [2] | log2 fold change [3] | log2 fold change [4] | log2 fold change [5] | log2 fold change [6] | log2 fold change [7] | log2 fold change [8] | log2 fold change [9] | log2 fold change [10] |
| --- | --- | --- | --- | --- | --- | --- | --- | --- | --- | --- |
| LARP4 isoform 4 (UniProt Q71RC2) | inactive: 0.066 | inactive: 0.005 | inactive: -0.041 | inactive: -0.002 | inactive: 0.251 | inactive: -0.017 | inactive: 0.018 | inactive: 0.054 | inactive: 0.04 | inactive: -0.053 |
| LAMTOR4 (UniProt Q0VGL1) | inactive: 0.016 | inactive: 0.006 | inactive: -0.012 | inactive: 0.034 | inactive: 0.167 | inactive: -0.024 | inactive: -0.024 | inactive: -0.092 | inactive: 0.006 | inactive: -0.032 |
| LPCAT1 (UniProt Q8NF37) | inactive: -0.012 | inactive: -0.016 | inactive: 0.01 | inactive: 0.048 | inactive: -0.024 | inactive: -0.067 | inactive: 0.016 | inactive: -0.017 | inactive: 0.019 | inactive: 0.019 |
| LRRC40 (UniProt Q9H9A6) | inactive: 0.071 | inactive: -0.005 | inactive: 0.012 | inactive: 0.02 | inactive: 0.006 | inactive: 0.065 | inactive: 0.098 | inactive: 0.053 | inactive: 0.122 | inactive: 0.074 |
| LGALS1 (UniProt P09382) | inactive: 0.046 | inactive: -0.059 | inactive: 0.024 | inactive: -0.016 | inactive: 0.061 | inactive: 0.012 | inactive: -0.005 | inactive: -0.013 | inactive: -0.035 | inactive: -0.001 |
| LMBRD2 (UniProt Q68DH5) | inactive: -0.038 | inactive: 0.016 | inactive: 0.043 | inactive: 0 | inactive: 0.019 | inactive: -0.052 | inactive: -0.03 | inactive: 0.038 | inactive: 0.043 | inactive: 0.011 |
| LCN2 isoform 2 (UniProt P80188) | inactive: -0.289 |  |  |  |  |  |  |  |  |  |
| LAMTOR2 (UniProt Q9Y2Q5) | inactive: 0.043 | inactive: 0.013 | inactive: -0.034 | inactive: -0.073 | inactive: 0.101 | inactive: -0.095 | inactive: 0.005 | inactive: -0.023 | inactive: -0.042 | inactive: -0.005 |
| LARS (UniProt Q9P2J5) | inactive: 0.015 | inactive: 0.022 | inactive: -0.038 | inactive: -0.067 | inactive: 0.308 | inactive: -0.019 | inactive: -0.038 | inactive: 0.15 | inactive: 0.073 | inactive: -0.026 |
| LRRC59 (UniProt Q96AG4) | inactive: 0.019 | inactive: -0.008 | inactive: 0.031 | inactive: 0.034 | inactive: -0.025 | inactive: -0.012 | inactive: -0.033 | inactive: -0.01 | inactive: -0.016 | inactive: -0.006 |
| LMNA (UniProt P02545) | inactive: -0.023 | inactive: 0.095 | inactive: -0.026 | inactive: -0.002 | inactive: -0.022 | inactive: 0.088 | inactive: 0.014 | inactive: -0.027 | inactive: 0.014 | inactive: -0.004 |
| LETM1 (UniProt O95202) | inactive: 0.036 | inactive: -0.01 | inactive: 0.036 | inactive: 0.045 | inactive: -0.091 | inactive: 0.012 | inactive: 0.025 | inactive: 0.008 | inactive: -0.018 | inactive: 0.009 |
| LIMS1 isoform 3 (UniProt P48059) | inactive: -0.033 | inactive: -0.005 | inactive: 0.02 | inactive: 0.037 | inactive: -0.038 | inactive: -0.032 | inactive: -0.065 | inactive: -0.036 | inactive: -0.045 | inactive: -0.002 |
| LDHB (UniProt P07195) | inactive: -0.011 | inactive: 0.009 | inactive: 0.016 | inactive: -0.002 | inactive: -0.061 | inactive: 0.001 | inactive: -0.015 | inactive: -0.127 | inactive: -0.01 | inactive: -0.026 |
| LIN28B (UniProt Q6ZN17) | inactive: -0.024 | inactive: 0.016 | inactive: -0.046 | inactive: -0.065 | inactive: 0.163 | inactive: -0.013 | inactive: 0.001 | inactive: 0.009 | inactive: -0.012 | inactive: -0.017 |
| LAGE3 (UniProt Q14657) | inactive: -0.052 | inactive: -0.03 | inactive: 0.016 | inactive: -0.046 | inactive: -0.021 | inactive: 0.033 | inactive: -0.026 | inactive: -0.017 | inactive: -0.023 | inactive: 0.023 |
| LPGAT1 (UniProt Q92604) | inactive: -0.077 | inactive: 0 | inactive: 0.034 | inactive: 0.077 | inactive: 0.036 | inactive: 0.018 | inactive: 0.086 | inactive: -0.033 | inactive: 0.064 | inactive: 0.068 |
| LARP4B (UniProt Q92615) | inactive: 0.055 | inactive: 0.032 | inactive: 0.016 | inactive: 0.001 | inactive: 0.127 | inactive: 0.016 | inactive: 0.022 | inactive: 0.05 | inactive: 0.061 | inactive: -0.025 |
| L3HYPDH (UniProt Q96EM0) | inactive: 0.015 | inactive: -0.042 | inactive: 0.001 | inactive: -0.014 | inactive: -0.027 | inactive: -0.042 | inactive: 0 | inactive: 0.013 | inactive: 0.061 | inactive: -0.01 |
| KYAT3 (UniProt Q6YP21) | inactive: -0.01 | inactive: 0.015 | inactive: -0.002 | inactive: 0.006 | inactive: -0.093 | inactive: 0 | inactive: 0.032 | inactive: -0.018 | inactive: -0.021 | inactive: 0.005 |
| LRPPRC (UniProt P42704) | inactive: 0.264 | inactive: -0.054 | inactive: 0.222 | inactive: 0.336 | inactive: 0.282 | inactive: 0.227 | inactive: 0.264 | inactive: -0.005 | inactive: 0.417 | inactive: 0.369 |
| LPCAT3 (UniProt Q6P1A2) | active: 0.289 | inactive: -0.029 | inactive: 0.052 | inactive: 0.033 | inactive: -0.226 | inactive: -0.019 | inactive: 0.036 | inactive: 0.089 | inactive: 0.031 | inactive: -0.005 |
| LCP1 (UniProt P13796) | inactive: 0.009 | inactive: 0.008 | inactive: -0.024 | inactive: 0.003 | inactive: -0.046 | inactive: -0.011 | inactive: -0.049 | inactive: -0.021 | inactive: -0.026 | inactive: 0 |
| LMNB1 (UniProt P20700) | inactive: -0.019 | inactive: 0.027 | inactive: -0.046 | inactive: -0.012 | inactive: -0.045 | inactive: 0.1 | inactive: 0.065 | inactive: -0.029 | inactive: 0.002 | inactive: 0.021 |
| LACTB (UniProt P83111) | inactive: 0.05 | inactive: 0.068 | inactive: -0.012 | inactive: -0.156 | inactive: 0.089 | inactive: 0.18 | inactive: -0.051 | inactive: 0.039 | inactive: 0.005 | inactive: 0.033 |
| LONP1 (UniProt P36776) | inactive: 0.011 | inactive: 0.038 | inactive: 0.012 | inactive: 0.028 | inactive: -0.055 | inactive: -0.011 | inactive: -0.009 | inactive: -0.01 | inactive: -0.007 | inactive: -0.021 |
| LRRC57 (UniProt Q8N9N7) | inactive: 0.015 | inactive: 0.041 | inactive: 0.016 | inactive: 0.028 | inactive: -0.013 | inactive: 0.03 | inactive: -0.001 | inactive: -0.039 | inactive: -0.002 | inactive: 0.005 |
| LCMT1 (UniProt Q9UIC8) | inactive: -0.009 | inactive: 0.017 | inactive: -0.007 | inactive: 0.028 | inactive: -0.047 | inactive: 0.099 | inactive: 0.014 | inactive: 0.015 | inactive: -0.053 | inactive: 0.005 |
| LMAN2L isoform 2 (UniProt Q9H0V9) | inactive: -0.047 | inactive: 0.008 | inactive: 0.094 | inactive: -0.004 | inactive: 0.035 | inactive: -0.01 | inactive: -0.044 | inactive: -0.057 | inactive: 0.042 | inactive: 0.025 |
| LIAS (UniProt O43766) | inactive: -0.044 | inactive: 0.119 | inactive: -0.128 | inactive: -0.002 | inactive: -0.057 | inactive: -0.013 | inactive: -0.13 | inactive: -0.01 | inactive: -0.06 | inactive: -0.001 |

A different layout for part of the listing above:
Target,log2 fold change [1],log2 fold change [2],log2 fold change [3],log2 fold change [4],log2 fold change [5],log2 fold change [6],log2 fold change [7],log2 fold change [8],log2 fold change [9],log2 fold change [10]
LAMTOR4 (UniProt Q0VGL1),inactive: 0.016,inactive: 0.006,inactive: -0.012,inactive: 0.034,inactive: 0.167,inactive: -0.024,inactive: -0.024,inactive: -0.092,inactive: 0.006,inactive: -0.032
LPCAT1 (UniProt Q8NF37),inactive: -0.012,inactive: -0.016,inactive: 0.01,inactive: 0.048,inactive: -0.024,inactive: -0.067,inactive: 0.016,inactive: -0.017,inactive: 0.019,inactive: 0.019
LRRC40 (UniProt Q9H9A6),inactive: 0.071,inactive: -0.005,inactive: 0.012,inactive: 0.02,inactive: 0.006,inactive: 0.065,inactive: 0.098,inactive: 0.053,inactive: 0.122,inactive: 0.074
LAMTOR2 (UniProt Q9Y2Q5),inactive: 0.043,inactive: 0.013,inactive: -0.034,inactive: -0.073,inactive: 0.101,inactive: -0.095,inactive: 0.005,inactive: -0.023,inactive: -0.042,inactive: -0.005
LAGE3 (UniProt Q14657),inactive: -0.052,inactive: -0.03,inactive: 0.016,inactive: -0.046,inactive: -0.021,inactive: 0.033,inactive: -0.026,inactive: -0.017,inactive: -0.023,inactive: 0.023
LPGAT1 (UniProt Q92604),inactive: -0.077,inactive: 0,inactive: 0.034,inactive: 0.077,inactive: 0.036,inactive: 0.018,inactive: 0.086,inactive: -0.033,inactive: 0.064,inactive: 0.068
L3HYPDH (UniProt Q96EM0),inactive: 0.015,inactive: -0.042,inactive: 0.001,inactive: -0.014,inactive: -0.027,inactive: -0.042,inactive: 0,inactive: 0.013,inactive: 0.061,inactive: -0.01
LPCAT3 (UniProt Q6P1A2),active: 0.289,inactive: -0.029,inactive: 0.052,inactive: 0.033,inactive: -0.226,inactive: -0.019,inactive: 0.036,inactive: 0.089,inactive: 0.031,inactive: -0.005
LCP1 (UniProt P13796),inactive: 0.009,inactive: 0.008,inactive: -0.024,inactive: 0.003,inactive: -0.046,inactive: -0.011,inactive: -0.049,inactive: -0.021,inactive: -0.026,inactive: 0
